Results from article doi:10.1101/2025.06.06.658343.
These are yes or no findings as the source states them, for the method shown.

The chains behind the UniProt entries cited, without tags or fusion partners. Where a name states a change or a piece, a line headed by the entry shows the natural chain unless it says otherwise. A line that says so, or that is headed by a name, gives the form on record, which may keep a tag or linker.
UniProt Q9H171: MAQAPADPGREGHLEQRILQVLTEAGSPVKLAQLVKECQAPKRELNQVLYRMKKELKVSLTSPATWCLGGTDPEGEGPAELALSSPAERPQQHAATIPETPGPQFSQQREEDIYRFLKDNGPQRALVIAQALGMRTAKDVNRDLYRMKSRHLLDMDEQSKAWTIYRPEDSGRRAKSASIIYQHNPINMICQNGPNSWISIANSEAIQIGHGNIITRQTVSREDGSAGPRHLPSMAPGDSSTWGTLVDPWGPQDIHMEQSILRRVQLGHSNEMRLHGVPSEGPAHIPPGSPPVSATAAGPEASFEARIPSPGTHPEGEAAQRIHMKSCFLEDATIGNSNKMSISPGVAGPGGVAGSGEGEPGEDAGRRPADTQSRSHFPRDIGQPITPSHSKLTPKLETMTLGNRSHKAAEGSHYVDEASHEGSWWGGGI
Zα domains-mutant human ZBP1 (mutZα1α2) fused C-terminally to eGFP-V5 (Q9H171, form named): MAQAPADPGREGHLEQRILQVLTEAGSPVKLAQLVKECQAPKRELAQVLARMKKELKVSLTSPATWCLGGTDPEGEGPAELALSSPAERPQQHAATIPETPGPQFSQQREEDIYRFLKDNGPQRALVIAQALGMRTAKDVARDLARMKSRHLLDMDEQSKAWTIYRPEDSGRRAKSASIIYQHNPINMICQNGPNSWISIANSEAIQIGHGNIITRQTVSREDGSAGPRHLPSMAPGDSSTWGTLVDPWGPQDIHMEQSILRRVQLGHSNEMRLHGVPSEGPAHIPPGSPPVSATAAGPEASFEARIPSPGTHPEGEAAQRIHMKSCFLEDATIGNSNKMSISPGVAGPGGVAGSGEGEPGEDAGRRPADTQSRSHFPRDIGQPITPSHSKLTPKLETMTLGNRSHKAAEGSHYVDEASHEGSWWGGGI

Target: Zα domains-mutant human ZBP1 (mutZα1α2) fused C-terminally to eGFP-V5 (human) (UniProt Q9H171)
Test: semi-denaturing detergent agarose gel electrophoresis

“Zα domains-mutant human ZBP1 (mutZα1α2) fused C-terminally to eGFP-V5 (from UniProt Q9H171 1-429)” was tested, and the binding was “no binding”.
